Data on one sequence can be found in publication PMC11420289, “IBR1, a novel endogenous IFIH1‐binding dsRNA, governs IFIH1 activation and M1 macrophage polarisation in ARDS”.

For some assays here: A negative result means that nothing was seen under these conditions. For some assays here: At least one verdict rests on a figure or table, not on a statement of the authors. Protein sequences can lack the tags named with them. For some assays here: For at least one entry, the source does not settle the construct or the ends of the probe. For some assays here: Results from cells or extracts need not show a direct contact.

The target in series [1] is T1, IFIH1 (endogenous, BMDM lysate) (Mus musculus) (UniProt Q8R5F7).
T1 sequence (looked up, limits assumed): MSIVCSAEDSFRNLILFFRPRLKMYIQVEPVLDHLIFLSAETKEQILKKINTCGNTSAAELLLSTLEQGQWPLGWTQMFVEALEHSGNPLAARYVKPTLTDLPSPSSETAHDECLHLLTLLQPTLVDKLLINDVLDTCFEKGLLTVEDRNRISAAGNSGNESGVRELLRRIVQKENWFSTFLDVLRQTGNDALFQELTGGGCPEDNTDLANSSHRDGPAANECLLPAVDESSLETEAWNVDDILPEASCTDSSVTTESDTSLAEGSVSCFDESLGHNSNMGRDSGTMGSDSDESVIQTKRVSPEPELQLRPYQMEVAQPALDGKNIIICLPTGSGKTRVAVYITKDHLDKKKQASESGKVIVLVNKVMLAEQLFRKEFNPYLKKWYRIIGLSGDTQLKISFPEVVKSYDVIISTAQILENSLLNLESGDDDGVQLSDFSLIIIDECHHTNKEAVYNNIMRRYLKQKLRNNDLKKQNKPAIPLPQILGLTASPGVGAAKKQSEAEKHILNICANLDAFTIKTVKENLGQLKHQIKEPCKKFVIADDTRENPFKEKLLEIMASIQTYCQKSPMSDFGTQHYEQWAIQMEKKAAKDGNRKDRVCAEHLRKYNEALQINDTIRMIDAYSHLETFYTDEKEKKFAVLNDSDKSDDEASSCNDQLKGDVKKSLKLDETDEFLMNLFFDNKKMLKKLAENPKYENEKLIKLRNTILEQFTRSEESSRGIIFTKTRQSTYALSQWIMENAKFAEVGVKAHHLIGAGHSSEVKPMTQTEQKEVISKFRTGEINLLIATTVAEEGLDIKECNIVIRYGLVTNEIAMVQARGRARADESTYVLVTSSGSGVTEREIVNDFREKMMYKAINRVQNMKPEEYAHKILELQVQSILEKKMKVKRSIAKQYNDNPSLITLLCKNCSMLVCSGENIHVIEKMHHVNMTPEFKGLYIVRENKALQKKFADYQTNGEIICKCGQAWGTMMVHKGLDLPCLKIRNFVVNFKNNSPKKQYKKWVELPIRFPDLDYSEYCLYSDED
Kind of series: pull-down. As to conditions: 6 ug biotin-RNA, Western blot, protein in an extract, label: 5' and 3' biotin (C6). (In general: A western blot detects proteins with antibodies after separation by electrophoresis.)

The next series addresses T2, IFIH1-M1-Flag (CARD) (UniProt Q8R5F7).
T2 sequence (looked up): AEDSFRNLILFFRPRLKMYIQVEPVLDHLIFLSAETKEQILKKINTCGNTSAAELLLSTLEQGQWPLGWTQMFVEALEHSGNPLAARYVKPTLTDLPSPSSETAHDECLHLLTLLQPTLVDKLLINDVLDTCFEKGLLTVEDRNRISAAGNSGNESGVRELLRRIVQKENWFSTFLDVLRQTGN
Nature of the series: EMSA. As to conditions: 0.1 pmol RNA, 30 pmol protein, ADPCP 2 mM; EMSA: 20 mM HEPES pH 7.5, 150 mM NaCl, 1.5 mM MgCl2, 2 mM DTT, 10 min at room temperature, BisTris native gel; recombinant protein; residues 7-190; protein details: Flag, His; label: 5' and 3' biotin (C6). Background: Mobility shift assays separate free from complexed probe on a gel.

The target of another series is T3, IFIH1-WT-Flag (UniProt Q8R5F7).
T3 sequence (looked up): T1 sequence (looked up, limits assumed)
Kind of series: EMSA. As to conditions: 0.1 pmol RNA, 30 pmol protein, ADPCP 2 mM; EMSA: 20 mM HEPES pH 7.5, 150 mM NaCl, 1.5 mM MgCl2, 2 mM DTT, 10 min at room temperature, BisTris native gel; recombinant protein; residues 1-1025; protein details: Flag, His; label: 5' and 3' biotin (C6).

Series [2] addresses T4, IFIH1-M2-Flag (helicase domain) (UniProt Q8R5F7).
T4 sequence (looked up): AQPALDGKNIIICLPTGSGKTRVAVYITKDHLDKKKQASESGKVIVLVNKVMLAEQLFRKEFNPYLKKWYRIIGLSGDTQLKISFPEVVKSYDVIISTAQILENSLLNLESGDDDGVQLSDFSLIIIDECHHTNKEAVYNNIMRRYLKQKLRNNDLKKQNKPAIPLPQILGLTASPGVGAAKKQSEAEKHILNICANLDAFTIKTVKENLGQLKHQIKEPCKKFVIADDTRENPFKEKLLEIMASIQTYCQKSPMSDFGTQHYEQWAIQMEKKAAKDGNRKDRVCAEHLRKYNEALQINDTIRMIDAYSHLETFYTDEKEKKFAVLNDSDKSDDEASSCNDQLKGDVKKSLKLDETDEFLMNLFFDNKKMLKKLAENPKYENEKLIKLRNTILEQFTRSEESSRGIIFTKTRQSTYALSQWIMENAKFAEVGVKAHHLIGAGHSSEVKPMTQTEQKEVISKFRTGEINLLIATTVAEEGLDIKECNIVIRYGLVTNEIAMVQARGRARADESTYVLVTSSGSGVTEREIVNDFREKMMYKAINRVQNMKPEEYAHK
Nature of the series: EMSA. As to conditions: 0.1 pmol RNA, 30 pmol protein, ADPCP 2 mM; EMSA: 20 mM HEPES pH 7.5, 150 mM NaCl, 1.5 mM MgCl2, 2 mM DTT, 10 min at room temperature, BisTris native gel; recombinant protein; residues 317-872; protein details: Flag, His; label: 5' and 3' biotin (C6).

The target in the next series is T5, IFIH1-M3-Flag (CTD) (UniProt Q8R5F7).
T5 sequence (looked up): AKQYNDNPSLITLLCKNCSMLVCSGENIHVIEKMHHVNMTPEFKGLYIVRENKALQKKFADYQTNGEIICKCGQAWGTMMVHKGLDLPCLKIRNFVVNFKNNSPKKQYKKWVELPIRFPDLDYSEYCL
Kind of series: EMSA. To be noted: 0.1 pmol RNA, 30 pmol protein, ADPCP 2 mM; EMSA: 20 mM HEPES pH 7.5, 150 mM NaCl, 1.5 mM MgCl2, 2 mM DTT, 10 min at room temperature, BisTris native gel; recombinant protein; residues 893-1020; protein details: Flag, His; label: 5' and 3' biotin (C6).

Turning to “UGUAUUUUCUCCUUAUAAUCACUCCCUCCCGGGGCAUGUAAUUAAUUUCCUGAUGGAUUACUCACACGGUCUUGAAGAUGCAAUGUCAGCUAUUUAGGCUGUGCUAGGACUCAAUUACAACAACAUAUGCAUUAAGACAGGAACUGGCAAGCCGGGACUACAGCAACUACAGGGCUGGUGCUUCCCAACCGCUGGGCUAUAAUCUAUGAAACUGAGCCGGGAUCCAGCCAAUCAGUUAGCUAGCUCCUCAUAACAGGUCUAACUGGCUCUGGACAGCUAAGGGCUGCGCUGGAACGUUCCAGCGCAGCCCUUA [IBR1-WT (biotin)]”, the binding result in series [1] is reported as “binds”; with IFIH1-M1-Flag (CARD) it was “no binding”; with IFIH1-WT-Flag, “binds”; in series [2], “binds”; with IFIH1-M3-Flag (CTD), “no binding”.
